From paper PMC9564825
These are yes or no findings as the source states them, for the method shown. Some binding calls cover weakened binding; strength is not graded here.

Protein sequences, listed by entry. Tags and fused reporters are not part of them.
UniProt P68371: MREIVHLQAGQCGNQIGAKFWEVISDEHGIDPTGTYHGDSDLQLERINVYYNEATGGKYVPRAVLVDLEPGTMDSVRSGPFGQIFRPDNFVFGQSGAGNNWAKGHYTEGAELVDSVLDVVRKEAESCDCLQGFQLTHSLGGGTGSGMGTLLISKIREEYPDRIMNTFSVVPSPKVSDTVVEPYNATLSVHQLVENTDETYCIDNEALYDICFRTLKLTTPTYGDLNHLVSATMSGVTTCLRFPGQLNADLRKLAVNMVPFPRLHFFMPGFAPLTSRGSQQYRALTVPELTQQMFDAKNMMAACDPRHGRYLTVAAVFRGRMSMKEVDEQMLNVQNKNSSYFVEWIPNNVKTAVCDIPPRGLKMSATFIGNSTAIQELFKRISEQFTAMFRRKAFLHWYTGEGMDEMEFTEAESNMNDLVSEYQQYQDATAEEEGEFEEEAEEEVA
UniProt Q969V4: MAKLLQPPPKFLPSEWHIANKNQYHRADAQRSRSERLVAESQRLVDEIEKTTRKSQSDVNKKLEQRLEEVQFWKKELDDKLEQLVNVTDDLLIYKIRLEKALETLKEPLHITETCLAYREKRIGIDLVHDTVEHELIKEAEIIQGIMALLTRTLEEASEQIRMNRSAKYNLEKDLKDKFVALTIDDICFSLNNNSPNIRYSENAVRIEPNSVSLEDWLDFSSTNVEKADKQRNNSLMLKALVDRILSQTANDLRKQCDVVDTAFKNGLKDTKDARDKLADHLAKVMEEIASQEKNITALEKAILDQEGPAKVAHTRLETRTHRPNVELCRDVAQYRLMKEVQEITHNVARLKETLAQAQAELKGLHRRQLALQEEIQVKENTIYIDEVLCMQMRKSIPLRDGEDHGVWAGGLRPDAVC
UniProt Q9Y5B8: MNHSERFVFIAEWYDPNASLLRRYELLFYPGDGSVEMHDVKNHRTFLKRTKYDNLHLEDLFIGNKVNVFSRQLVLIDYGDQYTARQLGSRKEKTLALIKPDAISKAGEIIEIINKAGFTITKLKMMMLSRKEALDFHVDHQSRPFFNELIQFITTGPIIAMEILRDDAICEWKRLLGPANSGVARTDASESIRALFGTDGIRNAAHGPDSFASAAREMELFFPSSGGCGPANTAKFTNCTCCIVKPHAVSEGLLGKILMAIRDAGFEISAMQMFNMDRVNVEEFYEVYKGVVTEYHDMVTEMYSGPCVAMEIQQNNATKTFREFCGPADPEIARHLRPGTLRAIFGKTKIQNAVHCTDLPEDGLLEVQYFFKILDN

How the values were obtained:
Test in all cases: cryo-EM structure; single-particle cryo-EM of the 48-nm repeat of native doublet microtubules from axonemes isolated from human respiratory cilia (ALI cultures); 3.6 Å consensus, 3.1 to 3.5 Å after local refinement
[1] = target: T1, CFAP45 (human (endogenous in respiratory cilia)) (UniProt Q9UL16)
T1 sequence: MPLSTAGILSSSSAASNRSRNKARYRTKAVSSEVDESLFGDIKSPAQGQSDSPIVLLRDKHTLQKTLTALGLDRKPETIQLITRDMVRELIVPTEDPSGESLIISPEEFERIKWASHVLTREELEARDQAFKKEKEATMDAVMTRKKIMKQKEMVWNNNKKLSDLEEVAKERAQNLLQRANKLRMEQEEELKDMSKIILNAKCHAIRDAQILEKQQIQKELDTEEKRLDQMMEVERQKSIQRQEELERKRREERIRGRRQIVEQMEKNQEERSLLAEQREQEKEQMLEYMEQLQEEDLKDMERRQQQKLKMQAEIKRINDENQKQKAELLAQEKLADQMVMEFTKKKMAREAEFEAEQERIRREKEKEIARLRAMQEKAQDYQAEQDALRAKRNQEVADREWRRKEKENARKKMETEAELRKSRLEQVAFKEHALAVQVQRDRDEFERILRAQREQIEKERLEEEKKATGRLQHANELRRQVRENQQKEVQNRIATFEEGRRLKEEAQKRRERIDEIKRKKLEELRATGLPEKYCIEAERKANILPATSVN

[2] = target: T2, CFAP52 (human (endogenous in respiratory cilia)) (UniProt Q8N1V2)
T2 sequence: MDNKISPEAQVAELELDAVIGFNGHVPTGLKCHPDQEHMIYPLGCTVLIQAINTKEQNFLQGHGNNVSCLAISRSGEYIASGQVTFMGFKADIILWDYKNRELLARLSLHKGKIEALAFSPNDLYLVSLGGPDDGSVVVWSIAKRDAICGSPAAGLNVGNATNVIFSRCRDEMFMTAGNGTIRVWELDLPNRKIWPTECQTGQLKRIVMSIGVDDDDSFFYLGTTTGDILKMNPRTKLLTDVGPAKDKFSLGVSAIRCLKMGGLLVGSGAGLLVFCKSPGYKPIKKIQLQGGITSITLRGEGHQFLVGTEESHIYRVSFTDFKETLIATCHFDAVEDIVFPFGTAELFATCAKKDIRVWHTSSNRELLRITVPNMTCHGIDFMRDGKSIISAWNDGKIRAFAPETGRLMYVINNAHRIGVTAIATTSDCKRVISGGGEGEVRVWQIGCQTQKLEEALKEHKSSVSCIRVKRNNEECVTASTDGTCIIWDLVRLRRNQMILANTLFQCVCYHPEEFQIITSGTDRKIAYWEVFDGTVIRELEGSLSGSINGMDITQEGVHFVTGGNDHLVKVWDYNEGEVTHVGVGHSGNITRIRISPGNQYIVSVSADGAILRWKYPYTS

[3] = target: T3, ENKUR (human (endogenous in respiratory cilia)) (UniProt Q8TC29)
T3 sequence: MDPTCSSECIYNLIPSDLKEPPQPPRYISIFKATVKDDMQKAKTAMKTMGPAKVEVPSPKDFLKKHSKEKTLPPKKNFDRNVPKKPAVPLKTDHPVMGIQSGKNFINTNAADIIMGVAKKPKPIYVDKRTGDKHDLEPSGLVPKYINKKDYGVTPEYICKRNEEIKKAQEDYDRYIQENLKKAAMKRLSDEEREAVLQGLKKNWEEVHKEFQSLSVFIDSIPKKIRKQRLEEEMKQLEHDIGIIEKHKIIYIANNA

[4] = target: T4, CFAP210 (human (endogenous in respiratory cilia)) (UniProt Q0VFZ6)
T4 sequence: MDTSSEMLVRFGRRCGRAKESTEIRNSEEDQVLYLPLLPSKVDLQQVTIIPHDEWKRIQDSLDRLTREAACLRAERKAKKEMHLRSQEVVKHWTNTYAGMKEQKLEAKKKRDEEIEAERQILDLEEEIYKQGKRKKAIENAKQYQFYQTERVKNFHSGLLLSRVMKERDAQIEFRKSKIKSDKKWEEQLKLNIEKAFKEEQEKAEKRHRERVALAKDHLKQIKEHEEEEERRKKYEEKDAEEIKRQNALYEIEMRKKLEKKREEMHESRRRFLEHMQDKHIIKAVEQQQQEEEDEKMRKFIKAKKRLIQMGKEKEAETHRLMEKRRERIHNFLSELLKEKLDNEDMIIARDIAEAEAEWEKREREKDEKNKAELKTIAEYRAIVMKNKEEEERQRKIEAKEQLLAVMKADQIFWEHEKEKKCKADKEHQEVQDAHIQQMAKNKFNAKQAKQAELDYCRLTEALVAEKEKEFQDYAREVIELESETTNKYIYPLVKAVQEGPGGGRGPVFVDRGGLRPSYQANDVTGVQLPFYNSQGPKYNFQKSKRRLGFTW

[5] = target: β-tubulin (TUBB4B) of the human respiratory DMT (human (endogenous in respiratory cilia)) (UniProt P68371)
[6] = target: tektin 1 (human (endogenous in respiratory cilia)) (UniProt Q969V4)
[7] = target: T5, CFAP53 (human (endogenous in respiratory cilia)) (UniProt Q96M91)
T5 sequence: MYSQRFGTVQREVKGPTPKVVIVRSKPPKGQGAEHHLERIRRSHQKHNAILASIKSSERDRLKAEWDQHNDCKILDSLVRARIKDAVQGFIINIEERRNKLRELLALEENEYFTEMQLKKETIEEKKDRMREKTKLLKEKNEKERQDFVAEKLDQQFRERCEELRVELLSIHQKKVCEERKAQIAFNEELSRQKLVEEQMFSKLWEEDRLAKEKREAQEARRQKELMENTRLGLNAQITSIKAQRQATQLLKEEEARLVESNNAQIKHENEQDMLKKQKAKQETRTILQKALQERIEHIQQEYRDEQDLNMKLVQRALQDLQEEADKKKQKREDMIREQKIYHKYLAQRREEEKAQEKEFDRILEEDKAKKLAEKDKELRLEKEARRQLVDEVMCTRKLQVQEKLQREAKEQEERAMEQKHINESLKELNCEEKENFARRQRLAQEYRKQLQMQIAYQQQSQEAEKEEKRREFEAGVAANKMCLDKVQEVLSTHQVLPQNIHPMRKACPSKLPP

[8] = target: NME7 (human (endogenous in respiratory cilia)) (UniProt Q9Y5B8)

B1: CFAP90 (protein, UniProt A4QMS7 1-147)
chain: MEDDEEETTASTLRGKPRPPPVSAQSAFSYIPPRRLDPKEHSYYYRPARTGIISLYDCIFKRRLDYDQKLHRDDREHAKSLGLHVNEEEQERPVGVLTSSVYGKRINQPIEPLNRDFGRANHVQADFYRKNDIPSLKEPGFGHIAPS
[1]
  binding: binds
[2]
  binding: binds
[3]
  binding: binds

B2: FAM183A (protein, UniProt A6NL82 1-134)
chain: MAGHPKEKVIPDEVHQNQILRELYLKELRTQKLYTQYHVNPLRKIHTVTRKPMSWHDNLEEPADARFLNLIHHAAQGPRKKYPETQTENQEVGWDLEPLINPERHDRRLNHFRVCSDITLYKAKTWGLGDDHHK
[4]
  binding: binds
[1]
  binding: binds

B3: SPACA9 (protein, UniProt Q96E40 1-222)
chain: MNEVKESLRSIEQKYKLFQQQQLTFTAALEHCRENAHDKIRPISSIGQVQSYMEHYCNSSTDRRVLLMFLDICSELNKLCQHFEAVHSGTPVTNNLLEKCKTLVSQSNDLSSLRAKYPHDVVNHLSCDEARNHYGGVVSLIPLILDLMKEWIAHSEKLPRKVLQHVSEPQAHQESTRGAARPAQAIGTQPRATKHKCRQLTKASLKPRGCSKPPWRPPGGKL
[5]
  binding: binds

B4: FAM166C (protein, UniProt A6NJV1 1-201)
chain: MASRSAGTLLTEFNAAYVPPGLMPGYQGHVPTVAFSFGAPYGTTTLKYFQDHRNRAMEKSHTPFSQGGHFPTIFSTNPNLLLMERASTRDRWLHKPSYTRFNLDSHRSTELTNFYQMVQQHRKYYQDKTGTVPRVPYFAMPVREPERYPLPTVLPPLCPKKKWHLLRLAPENLKTYQTFPSGKRVSPQERKKRDCYFEFRA
[6]
  binding: binds

B5: CFAP68 (protein, UniProt Q9H5F2 1-150)
chain: MAASQCLCCSKFLFQRQNLACFLTNPHCGSLVNADGHGEVWTDWNNMSKFFQYGWRCTTNENTYSNRTLMGNWNQERYDLRNIVQPKPLPSQFGHYFETTYDTSYNNKMPLSTHRFKREPHWFPGHQPELDPPRYKCTEKSTYMNSYSKP
[7]
  binding: binds
[8]
  binding: binds
